This passage reports TEAD-luciferase reporter activity results from the supplement of paper PMC10735217.

This experiment deals with HEK293A TEAD-LUC reporter. Briefly: TEAD-luciferase reporter activity (YAP activation), robust Z score vs plate; higher = stronger YAP/TEAD activation. As to conditions: 24 h. For orientation: Reporter assays use an easily measured gene product as a stand-in for the process of interest.

The list shows a part of the results. Repeats in this data set agree poorly, so a single value says little.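 The human kidney-derived cells carry a stably integrated construct of eight TEAD-binding elements driving luciferase, read by luminescence in a drug-repurposing library screen. A compound counts as a hit when its signal is more than five robust Z scores above the plate mean.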

On to `O=C(NCc1cccc(Cl)c1)c1ccc2nc(-c3ccncc3)oc2c1`, for which the TEAD-luciferase reporter activity reads like this: (compound concentration: 200 nM) inactive: -0.252; (compound concentration: 10 uM) inactive: -1.62.
`CC(C)(C)NC(=O)[C@H]1CC[C@H]2[C@@H]3CC=C4C=C(C(=O)O)CC[C@]4(C)[C@H]3CC[C@]12C` [epristeride]: the TEAD-luciferase reporter activity runs as follows: (compound concentration: 200 nM) inactive: -1.52; (compound concentration: 2 uM) inactive: 1.52; (compound concentration: 10 uM) inactive: 0.114.
As for `CCCCC/C=C/C/C=C/CCCCCCCC(=O)OCC(=O)[C@@]1(O)[C@H](C)C[C@H]2[C@@H]3CCC4=CC(=O)C=C[C@]4(C)[C@@]3(F)[C@@H](O)C[C@@]21C` [dexamethasone linoleate], the TEAD-luciferase reporter activity runs as follows: (compound concentration: 200 nM) inactive: 0.193; (compound concentration: 2 uM) inactive: -0.0617; (compound concentration: 10 uM) inactive: 0.756.
Take `COc1cc(C(=O)N2CCC(CCN3CCC(C(=O)N4CCN(CC(=O)O)CC4)(c4ccccc4)CC3)(c3ccc(Cl)c(Cl)c3)C2)cc(OC)c1OC` (stereo not drawn): the TEAD-luciferase reporter activity was inactive: -1.71 (compound concentration: 200 nM), inactive: 0.075 (compound concentration: 2 uM) and inactive: -1.35 (compound concentration: 10 uM).
As for `CC(SC(=O)c1cccs1)C(=O)NC1CCSC1=O` (stereo not drawn) [Midesteine], the TEAD-luciferase reporter activity was inactive: 0.601 (compound concentration: 200 nM), inactive: 1.16 (compound concentration: 2 uM) and inactive: -0.618 (compound concentration: 10 uM).
With `Fc1ccc(NC(=S)Nc2cccc(Cl)c2)cc1`, the TEAD-luciferase reporter activity (compound concentration: 200 nM) was inactive: -0.123, the TEAD-luciferase reporter activity (compound concentration: 2 uM) was inactive: -0.864 and the TEAD-luciferase reporter activity (compound concentration: 10 uM) was inactive: -0.93.
For `Cc1cccc(CCN2CCC(C(=O)c3ccc(NS(C)(=O)=O)cc3)CC2)n1`, the TEAD-luciferase reporter activity runs as follows: (compound concentration: 200 nM) inactive: 0.55; (compound concentration: 2 uM) inactive: -0.34; (compound concentration: 10 uM) inactive: 0.717.
For `Cc1nc(N)nc(N)c1C1CCCCC1` the same measures were inactive: -0.419, inactive: -1.03 and active: 7.
For `Cc1ccc(C(=O)Nc2ccc(C3=NCCN3)cc2)cc1`, the TEAD-luciferase reporter activity runs as follows: (compound concentration: 200 nM) inactive: 0.406; (compound concentration: 2 uM) inactive: 4.22; (compound concentration: 10 uM) inactive: 1.22.
`O=C(c1ccc(F)cc1)N1CCC(n2c(=O)[nH]c3ccccc32)CC1`: the TEAD-luciferase reporter activity (compound concentration: 200 nM) was inactive: 1.05 and the TEAD-luciferase reporter activity (compound concentration: 10 uM) is inactive: 0.513.
For the compound `COc1ccc(CNc2nc([C@H]3CC[C@H](C(=O)O)CC3)nc3sc4ccccc4c23)cc1Cl`, the TEAD-luciferase reporter activity is, setting by setting: (compound concentration: 200 nM) inactive: -1.64; (compound concentration: 2 uM) inactive: -1.97; (compound concentration: 10 uM) active: 9.49.
`C=C1c2c(Cl)ccc(O)c2C(=O)C2=C(O)[C@]3(O)C(=O)C(C(N)=O)=C(O)[C@@H](N(C)C)[C@@H]3[C@@H](O)C12` (stereo partly drawn) [Meclocycline sulfosalicylate]: the TEAD-luciferase reporter activity reads like this: (compound concentration: 200 nM) inactive: -1.36; (compound concentration: 2 uM) inactive: 0.343; (compound concentration: 10 uM) inactive: 0.681.
Take `CC(=O)N[C@H](Cc1ccc2ccccc2c1)C(=O)N[C@H](Cc1ccc(Cl)cc1)C(=O)N[C@H](Cc1cccnc1)C(=O)N[C@@H](CO)C(=O)N[C@@H](Cc1ccc(NC(=O)[C@@H]2CC(=O)NC(=O)N2)cc1)C(=O)N[C@H](Cc1ccc(NC(N)=O)cc1)C(=O)N[C@@H](CC(C)C)C(=O)N[C@@H](CCCCNC(C)C)C(=O)N1CCC[C@H]1C(=O)N[C@H](C)C(N)=O` [Degarelix]: the TEAD-luciferase reporter activity is inactive: -1.39 (compound concentration: 200 nM), inactive: 1.44 (compound concentration: 2 uM) and inactive: 2.64 (compound concentration: 10 uM).
`NCC(=O)NC1Cc2ccccc2C1`: the TEAD-luciferase reporter activity runs as follows: (compound concentration: 200 nM) inactive: -0.52; (compound concentration: 2 uM) inactive: -0.847; (compound concentration: 10 uM) inactive: -1.26.
Regarding `Cc1ccc(-c2c(-c3ccncc3)c(-c3ccc(F)cc3)nc3[nH]ncc23)cc1`, the TEAD-luciferase reporter activity is inactive: -0.72 (compound concentration: 200 nM), inactive: -1.42 (compound concentration: 2 uM) and active: 6.25 (compound concentration: 10 uM).
Turning to `CCC(=O)N1C2CCCC1CC(=O)C2`, the TEAD-luciferase reporter activity runs as follows: (compound concentration: 200 nM) inactive: 0.655; (compound concentration: 10 uM) inactive: 2.04.
Turning to `COc1ccc(C2Sc3cc(Cl)ccc3N(CCN(C)C)C(=O)C2OC(C)=O)cc1` (stereo not drawn), the TEAD-luciferase reporter activity was inactive: 0.0852 (compound concentration: 200 nM), inactive: 0.0596 (compound concentration: 2 uM) and inactive: -0.614 (compound concentration: 10 uM).
With `Cc1cc(S(C)(=O)=O)c(NC(=O)N(Cc2ccc(Oc3ccc(F)cc3)cc2)C2CCCCCC2)c(S(C)(=O)=O)n1`, the TEAD-luciferase reporter activity (compound concentration: 200 nM) was inactive: -1.45, the TEAD-luciferase reporter activity (compound concentration: 2 uM) is inactive: 2.52 and the TEAD-luciferase reporter activity (compound concentration: 10 uM) is inactive: 2.58.
The corresponding values for `Cc1[nH]nc(C(F)(F)F)c1Cc1sc2c(c1C(=O)N1C[C@](C)(O)CO1)c(=O)n(C)c(=O)n2C(C)C` are inactive: -1.65, inactive: -2.13 and inactive: 1.04.
Take `CC(=O)Nc1ccc(OCCOC(=O)c2ccccc2OC(C)=O)cc1`: the TEAD-luciferase reporter activity by setting is: (compound concentration: 200 nM) inactive: -1.16; (compound concentration: 2 uM) inactive: 0.951; (compound concentration: 10 uM) inactive: 3.37.
With `CC(=O)c1ccc2c(c1)[C@@H](NC(=O)c1cc(F)cc(F)c1)[C@H](O)C(C)(C)O2` [Tidembersat], the TEAD-luciferase reporter activity is inactive: -0.982 (compound concentration: 200 nM), inactive: -0.847 (compound concentration: 2 uM) and inactive: -0.938 (compound concentration: 10 uM).
With `Cc1cc2ncc(C(=O)NC(C)CCc3ccccc3)cn2n1` (stereo not drawn), the TEAD-luciferase reporter activity (compound concentration: 200 nM) is inactive: 3.66 and the TEAD-luciferase reporter activity (compound concentration: 10 uM) is inactive: 2.25.
`CCCCC(F)(F)[C@@]1(O)CC[C@@H]2[C@H](CCCCCCC(=O)O)C(=O)C[C@H]2O1` [Lubiprostone]: the TEAD-luciferase reporter activity reads like this: (compound concentration: 200 nM) inactive: -0.136; (compound concentration: 2 uM) inactive: 1.15; (compound concentration: 10 uM) inactive: 4.06.
For `Clc1ccc(OCCO/C(=C/n2ccnc2)c2ccc(Cl)cc2Cl)cc1` the same measures were inactive: -1.14, inactive: -1.68 and inactive: 4.3.
Regarding `CN(C)CCCOc1ccc2[nH]nc(S(=O)(=O)c3cccc4ccccc34)c2c1`, the TEAD-luciferase reporter activity (compound concentration: 200 nM) was inactive: 0.0489, the TEAD-luciferase reporter activity (compound concentration: 2 uM) is inactive: -1.53 and the TEAD-luciferase reporter activity (compound concentration: 10 uM) was inactive: -0.651.
As to `CC(C)NCCN(C(C)C)S(=O)(=O)c1ccc(NS(C)(=O)=O)cc1`, the TEAD-luciferase reporter activity reads like this: (compound concentration: 200 nM) inactive: -0.566; (compound concentration: 2 uM) inactive: 1.23.
